In the supplement of paper PMC8728848:
The list shows a part of the results.

Key:
Experiment in all cases: glycan array binding signal (z-score within array); higher = stronger binding
Conditions in all cases: glycan notation: IUPAC condensed, linker removed
[1] = target: Neu5Ac(a2-3)Gal(b1-3)[Fuc(a1-4)]GlcNAc
Outline: (§1)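 Negative Z-scores can be read as non-binding. The Z-score is calculated within each array and then averaged across arrays of one protein sequence at different concentrations or buffers and across linkers. Arrays, 3228 in all, were curated from the Consortium for Functional Glycomics database and kept only where the protein sequence was available.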

[2] = target: Neu5Ac(a2-3)Gal(b1-3)[Fuc(a1-4)]GlcNAc(b1-3)Gal(b1-3)[Fuc(a1-4)]GlcNAc
Outline: as §1

[3] = target: Neu5Ac(a2-3)Gal(b1-3)[Fuc(a1-4)]GlcNAc(b1-3)Gal(b1-4)[Fuc(a1-3)]GlcNAc
Outline: as §1

[4] = target: Neu5Ac(a2-3)Gal(b1-3)[GlcNAc(b1-6)]GalNAc
Outline: as §1

[5] = target: Neu5Ac(a2-3)Gal(b1-3)[Neu5Ac(a2-6)]GalNAc
Outline: as §1

[6] = target: Neu5Ac(a2-3)Gal(b1-3)[Neu5Ac(a2-6)]GlcNAc(b1-3)[Fuc(a1-3)[Gal(b1-4)]GlcNAc(b1-6)]Gal(b1-4)Glc
Outline: as §1

[7] = target: Neu5Ac(a2-3)Gal(b1-3)]Neu5Ac(a2-3)Gal(b1-4)]GlcNAc
Outline: as §1

[8] = target: Neu5Ac(a2-3)Gal(b1-4)Glc
Outline: as §1

[9] = target: Neu5Ac(a2-3)Gal(b1-4)GlcNAc
Outline: as §1

[10] = target: Neu5Ac(a2-3)Gal(b1-4)GlcNAc(b1-2)Man
Outline: as §1

[11] = target: Neu5Ac(a2-3)Gal(b1-4)GlcNAc(b1-2)Man(a1-3)[GlcNAc(b1-4)][Neu5Ac(a2-3)Gal(b1-4)GlcNAc(b1-2)Man(a1-6)]Man(b1-4)GlcNAc(b1-4)GlcNAc
Outline: as §1

[12] = target: Neu5Ac(a2-3)Gal(b1-4)GlcNAc(b1-2)Man(a1-3)[Neu5Ac(a2-3)Gal(b1-4)GlcNAc(b1-2)Man(a1-6)]Man(b1-4)GlcNAc(b1-4)GlcNAc
Outline: as §1

[13] = target: Neu5Ac(a2-3)Gal(b1-4)GlcNAc(b1-2)Man(a1-3)[Neu5Ac(a2-3)Gal(b1-4)GlcNAc(b1-2)Man(a1-6)]Man(b1-4)GlcNAc(b1-4)[Fuc(a1-6)]GlcNAc
Outline: as §1

[14] = target: Neu5Ac(a2-3)Gal(b1-4)GlcNAc(b1-2)Man(a1-3)[Neu5Ac(a2-6)Gal(b1-4)GlcNAc(b1-2)Man(a1-6)]Man(b1-4)GlcNAc(b1-4)GlcNAc
Outline: as §1

[15] = target: Neu5Ac(a2-3)Gal(b1-4)GlcNAc(b1-2)[Neu5Ac(a2-3)Gal(b1-4)GlcNAc(b1-4)]Man(a1-3)[GlcNAc(b1-4)][Neu5Ac(a2-3)Gal(b1-4)GlcNAc(b1-2)[Neu5Ac(a2-3)Gal(b1-4)GlcNAc(b1-6)]Man(a1-6)]Man(b1-4)GlcNAc(b1-4)GlcNAc
Outline: as §1

[16] = target: Neu5Ac(a2-3)Gal(b1-4)GlcNAc(b1-2)[Neu5Ac(a2-3)Gal(b1-4)GlcNAc(b1-4)]Man(a1-3)[GlcNAc(b1-4)][Neu5Ac(a2-3)Gal(b1-4)GlcNAc(b1-4)Man(a1-6)]Man(b1-4)GlcNAc(b1-4)GlcNAc
Outline: as §1

[17] = target: Neu5Ac(a2-3)Gal(b1-4)GlcNAc(b1-2)[Neu5Ac(a2-3)Gal(b1-4)GlcNAc(b1-6)]Man(a1-6)[Neu5Ac(a2-3)Gal(b1-4)GlcNAc(b1-2)Man(a1-3)]Man(b1-4)GlcNAc(b1-4)GlcNAc
Outline: as §1

[18] = target: Neu5Ac(a2-3)Gal(b1-4)GlcNAc(b1-2)[Neu5Ac(a2-3)Gal(b1-4)GlcNAc(b1-6)]Man(a1-6)[Neu5Ac(a2-3)Gal(b1-4)GlcNAc(b1-2)Man(a1-3)][GlcNAc(b1-4)]Man(b1-4)GlcNAc(b1-4)GlcNAc
Outline: as §1

[19] = target: Neu5Ac(a2-3)Gal(b1-4)GlcNAc(b1-3)Gal
Outline: as §1

[20] = target: Neu5Ac(a2-3)Gal(b1-4)GlcNAc(b1-3)Gal(b1-3)GlcNAc
Outline: as §1

[21] = target: Neu5Ac(a2-3)Gal(b1-4)GlcNAc(b1-3)Gal(b1-4)GlcNAc
Outline: as §1

[22] = target: Neu5Ac(a2-3)Gal(b1-4)GlcNAc(b1-3)Gal(b1-4)GlcNAc(b1-2)Man(a1-3)[Neu5Ac(a2-3)Gal(b1-4)GlcNAc(b1-3)Gal(b1-4)GlcNAc(b1-2)Man(a1-6)]Man(b1-4)GlcNAc(b1-4)GlcNAc
Outline: as §1

[23] = target: Neu5Ac(a2-3)Gal(b1-4)GlcNAc(b1-3)Gal(b1-4)GlcNAc(b1-3)Gal(b1-4)GlcNAc
Outline: as §1

[24] = target: Neu5Ac(a2-3)Gal(b1-4)GlcNAc(b1-3)Gal(b1-4)GlcNAc(b1-3)Gal(b1-4)GlcNAc(b1-2)Man(a1-3)[Neu5Ac(a2-3)Gal(b1-4)GlcNAc(b1-3)Gal(b1-4)GlcNAc(b1-3)Gal(b1-4)GlcNAc(b1-2)Man(a1-6)]GalNAc
Outline: as §1

[25] = target: Neu5Ac(a2-3)Gal(b1-4)GlcNAc(b1-3)Gal(b1-4)GlcNAc(b1-3)GalNAc
Outline: as §1

[26] = target: Neu5Ac(a2-3)Gal(b1-4)GlcNAc(b1-3)Gal(b1-4)GlcNAc(b1-3)[Neu5Ac(a2-3)Gal(b1-4)GlcNAc(b1-3)Gal(b1-4)GlcNAc(b1-6)]GalNAc
Outline: as §1

[27] = target: Neu5Ac(a2-3)Gal(b1-4)GlcNAc(b1-3)Gal(b1-4)GlcNAc(b1-6)[Gal(b1-3)]GalNAc
Outline: as §1

[28] = target: Neu5Ac(a2-3)Gal(b1-4)GlcNAc(b1-3)Gal(b1-4)[Fuc(a1-3)]GlcNAc
Outline: as §1

[29] = target: Neu5Ac(a2-3)Gal(b1-4)GlcNAc(b1-3)GalNAc
Outline: as §1

[30] = target: Neu5Ac(a2-3)Gal(b1-4)GlcNAc(b1-3)[Neu5Ac(a2-3)Gal(b1-4)GlcNAc(b1-6)]GalNAc
Outline: as §1

[31] = target: Neu5Ac(a2-3)Gal(b1-4)GlcNAc(b1-6)GalNAc
Outline: as §1

[32] = target: Neu5Ac(a2-3)Gal(b1-4)GlcNAc(b1-6)[Gal(b1-3)]GalNAc
Outline: as §1

[33] = target: Neu5Ac(a2-3)Gal(b1-4)GlcNAc(b1-6)[Neu5Ac(a2-3)Gal(b1-3)]GalNAc
Outline: as §1

[34] = target: Neu5Ac(a2-3)Gal(b1-4)GlcNAc6S
Outline: as §1

[35] = target: Neu5Ac(a2-3)Gal(b1-4)[Fuc(a1-3)]GlcNAc
Outline: as §1

[36] = target: Neu5Ac(a2-3)Gal(b1-4)[Fuc(a1-3)]GlcNAc(b1-2)Man
Outline: as §1

[37] = target: Neu5Ac(a2-3)Gal(b1-4)[Fuc(a1-3)]GlcNAc(b1-3)Gal
Outline: as §1

[38] = target: Neu5Ac(a2-3)Gal(b1-4)[Fuc(a1-3)]GlcNAc(b1-3)Gal(b1-4)GlcNAc
Outline: as §1

[39] = target: Neu5Ac(a2-3)Gal(b1-4)[Fuc(a1-3)]GlcNAc(b1-3)Gal(b1-4)[Fuc(a1-3)]GlcNAc(b1-3)Gal(b1-4)[Fuc(a1-3)]GlcNAc
Outline: as §1

[40] = target: Neu5Ac(a2-3)Gal(b1-4)[Fuc(a1-3)]GlcNAc(b1-3)GalNAc
Outline: as §1

[41] = target: Neu5Ac(a2-3)Gal(b1-4)[Fuc(a1-3)]GlcNAc(b1-6)[Gal(b1-3)]GalNAc
Outline: as §1

[42] = target: Neu5Ac(a2-3)Gal(b1-4)[Fuc(a1-3)]GlcNAc(b1-6)[Neu5Ac(a2-3)Gal(b1-3)]GalNAc
Outline: as §1

[43] = target: Neu5Ac(a2-3)Gal(b1-4)[Fuc(a1-3)]GlcNAc6S
Outline: as §1

[44] = target: Neu5Ac(a2-3)Gal6S(b1-4)GlcNAc
Outline: as §1

[45] = target: Neu5Ac(a2-3)Gal6S(b1-4)[Fuc(a1-3)]GlcNAc
Outline: as §1

B1: EULS2 M3 (Oryza sativa) (protein)
chain: MVYCRANPNYAMTARNGAVVLAPANPKDEYQHWIKDMRWSTSIKDEEGYPAFALVNKATGQAIKHSLGQSHPVRLVPYNPEVMDESVLWTESRDVGNGFRCIRMVNNIYLNFDAFHGDKYHGGVRDGTDIVLWKLCEGDSLRWKIQPYYILEQKLISEEDLNSAVDHHHHHH
glycan array binding signal (z-score) [1]: -0.194
glycan array binding signal (z-score) [2]: -0.531
glycan array binding signal (z-score) [3]: -0.194
glycan array binding signal (z-score) [4]: -0.108
glycan array binding signal (z-score) [5]: -0.579
glycan array binding signal (z-score) [6]: -0.651
glycan array binding signal (z-score) [7]: -0.284
glycan array binding signal (z-score) [8]: 0.101
glycan array binding signal (z-score) [9]: -0.262
glycan array binding signal (z-score) [10]: -0.09
glycan array binding signal (z-score) [11]: -0.414
glycan array binding signal (z-score) [12]: -0.723
glycan array binding signal (z-score) [13]: -0.844
glycan array binding signal (z-score) [14]: -0.584
glycan array binding signal (z-score) [15]: -0.102
glycan array binding signal (z-score) [16]: -0.265
glycan array binding signal (z-score) [17]: -0.063
glycan array binding signal (z-score) [18]: 0.415
glycan array binding signal (z-score) [19]: -0.143
glycan array binding signal (z-score) [20]: -0.422
glycan array binding signal (z-score) [21]: -0.786
glycan array binding signal (z-score) [22]: 0.561
glycan array binding signal (z-score) [23]: -1.62
glycan array binding signal (z-score) [24]: 0.667
glycan array binding signal (z-score) [25]: -0.368
glycan array binding signal (z-score) [26]: -0.135
glycan array binding signal (z-score) [27]: -0.345
glycan array binding signal (z-score) [28]: -0.416
glycan array binding signal (z-score) [29]: -0.286
glycan array binding signal (z-score) [30]: 0.127
glycan array binding signal (z-score) [31]: 1.04
glycan array binding signal (z-score) [32]: -0.23
glycan array binding signal (z-score) [33]: 0.062
glycan array binding signal (z-score) [34]: -0.422
glycan array binding signal (z-score) [35]: 0.452
glycan array binding signal (z-score) [36]: 0.599
glycan array binding signal (z-score) [37]: 0.557
glycan array binding signal (z-score) [38]: -0.586
glycan array binding signal (z-score) [39]: -0.22
glycan array binding signal (z-score) [40]: -0.173
glycan array binding signal (z-score) [41]: -0.216
glycan array binding signal (z-score) [42]: 0.296
glycan array binding signal (z-score) [43]: -0.425
glycan array binding signal (z-score) [44]: -0.387
glycan array binding signal (z-score) [45]: -0.427
